Here are results for 36 molecules from PubChem BioAssay AID2685 (National Center for Advancing Translational Sciences (NCATS), 2010).

The structures appear in SMILES notation. The list shows a part of the results. Shown are side measurements of this screen, not its main read-out; they come without a call. Most of these compounds were active or inconclusive in the main read-out, so they are no random draw. Potencies come from curve fits of mixed quality, noted in brackets.

This experiment can be described thus: qHTS Assay for Lipid Storage Modulators in Drosophila S3 Cells.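 On cell number change: cells counted by Cell Tracker Red CMTPX staining in the red channel.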 The note with it: BODIPY lipid droplet fluorescence, 18-24 h; for cell number change: measured here: cell count max response, cells fed with added oleic acid. The method, boiled down: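 Drosophila S3 cells got compounds at several concentrations plus oleic acid (400 uM solution). Laser-scanning cytometry with 488 nm excitation read lipid droplets at 500-530 nm and cells at 575-640 nm. Percent activity was relative to 20 uM Triacsin C.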
(In general: qHTS replaces the single test concentration by a dilution series.)

Where [1] appears, read: measured here: cell number channel AC50, cells fed with added oleic acid.
[2] abbreviates: measured here: lipid fluorescence (Fed channel) AC50, cells fed with added oleic acid.

What is called AC50 is the concentration giving half of the maximal activity seen. The low end stands for greater potency, the high end for weaker potency. In the case of `O=C(N/N=C\c1ccccc1F)c1ccc(-c2ccccc2)cc1`, the cell number change stood at 35.3%. For the same molecule, the AC50 under setting [1] was 29.1 µM [rising, single point]. Moreover, under setting [2], the AC50 was 0.00461 µM [falling, full curve, poor fit].

Turning to `O=C(O)CNC1=NCCCCC1`, the cell number change is -18.4%. The AC50 under setting [2] was 0.206 µM [rising, full curve].

`Cc1cccc(NC2SC(=O)N(c3ccccc3)C2=O)c1` (stereo unspecified): the cell number change stood at 14.3%. For the same molecule, the AC50 under setting [2] is 6.51 µM [rising, partial curve, poor fit].

Regarding `O=C(N1CCCC1)C12CCC3CC(CC(C3)C1)C2`, the cell number change was -8.69%. Moreover, under setting [1], the AC50 was 0.461 µM [falling, full curve]. Further, under setting [2], the AC50 is 0.731 µM [falling, full curve].

Take `CCOc1ccc(NC(=O)CSc2nc3ccsc3c(=O)n2CCC(=O)O)cc1`: the cell number change came to 1.79%.

Take `O=C(CSc1nc(C2CC2)nc2ccccc12)N1CCc2ccccc2C1`: the cell number change was -18.9%. For the same molecule, under setting [2], the AC50 was 4.11 µM [falling, single point].

`COCCNC(=O)CS(=O)Cc1nc(-c2ccccc2C)oc1C` (stereo unspecified): the cell number change amounted to 7.86%.

For `CCc1c(C)nc2cc(-c3ccc(OC)c(OC)c3)nn2c1NCC1CC1`, the cell number change is -168%. For the same molecule, the AC50 under setting [1] was 11.6 µM [falling, single point]. Also, the AC50 under setting [2] is 11.6 µM [falling, single point].

`COc1ccccc1NC(=O)CSc1nnc(-c2ccoc2C)o1`: the cell number change is 12.8%. Moreover, under setting [2], the half-maximal activity concentration (AC50) is 0.92 µM [rising, full curve, poor fit].

As for `CCOc1ccc(N(CC(=O)NCCSCc2ccccc2)S(=O)(=O)c2ccccc2)cc1`, the cell number change came out at 31.1%. The AC50 under setting [2] was 20.6 µM [falling, single point].

As to `CCC(C)(C)n1nnnc1C(c1ccccc1)N1CCc2ccccc2C1` (stereo unspecified), the AC50 under setting [2] was 2.31 µM [rising, partial curve, poor fit].

In the case of `COc1ccc2[nH]c(=O)c(CN(Cc3cccs3)Cc3nnnn3C(C)(C)C)cc2c1`, the AC50 by setting is: under setting [1], 3.26 µM [rising, single point]; under setting [2], 6.51 µM [rising, single point].

With `CCCn1c(SCC(=O)N2CCCc3ccccc32)nnc1-c1ccco1`, the cell number change was 5.62%. In addition, the AC50 under setting [2] is 29.1 µM [rising, single point].

As to `CCOc1cc(-c2nc(-c3ccc(C)nc3OCC)no2)cc(OCC)c1OCC`, under setting [1], the AC50 is 1.64 µM [rising, partial curve].

Turning to `CC(C)(C)NC(=O)CCN(/N=C/c1ccccc1F)C1=NS(=O)(=O)c2ccccc21`, the cell number change is -14%. The AC50 under setting [2] was 18.4 µM [falling, single point].

As for `CCCCNC(=O)C1=C(N)C(C(=O)Nc2ccc(C)c(S(=O)(=O)N3CCCCC3)c2)SC1=Nc1ccc(C)cc1C` (stereo unspecified), the cell number change is -22%. The AC50 under setting [1] was 0.82 µM [rising, full curve]. In addition, the AC50 under setting [2] was 1.84 µM [rising, partial curve].

Take `CCCCCOc1ccc(C(=O)NCCC(=O)NCCCC(=O)OCC)cc1`: the cell number change was -52.5%. The AC50 under setting [1] is 23.1 µM [falling, partial curve].

For `Cc1nn(CCCC(=O)N2CCc3ccccc3C2)c(=O)c2cc3sccc3n12`, the cell number change was -16.9%.

Regarding `CN1CCN(CC(=O)Nc2ccc(OCc3ccccc3)cc2)CC1`, the cell number change is -35.3%. Further, the AC50 under setting [1] is 0.231 µM [falling, full curve, poor fit]. The concentration at half-maximal activity (AC50) under setting [2] was 0.82 µM [falling, full curve, poor fit].

In the case of `Cc1cc(C)c2c(CN3CCOCC3)cc(=O)oc2c1C`, the cell number change stood at 37.5%. For the same molecule, the half-maximal activity concentration (AC50) under setting [1] is 8.2 µM [rising, partial curve, poor fit]. Further, under setting [2], the concentration at half-maximal activity (AC50) is 5.8 µM [rising, partial curve].

For `COc1ccc(S(=O)(=O)N2CCCC(C(=O)NCc3ccco3)C2)cc1Cl` (stereo unspecified), the cell number change is -1.55%. In addition, under setting [2], the AC50 is 0.00651 µM [falling, full curve, poor fit].

With `CC1CCN(S(=O)(=O)c2ccc3c(ccn3CCC(=O)NC(C)C)c2)CC1`, the cell number change was -8.75%. The AC50 under setting [2] was 2.31 µM [rising, single point].

`Cc1cc(C)nc(-n2ncc3c2CC(c2ccccc2)CC3=O)n1` (stereo unspecified): the cell number change was -6.03%. For the same molecule, the half-maximal activity concentration (AC50) under setting [2] is 8.2 µM [falling, partial curve, poor fit].

In the case of `C=CCNC(=O)C1CC(=O)N(c2ccc(OCC(=O)Nc3ccc(Cl)c(C(F)(F)F)c3)cc2)C1` (stereo unspecified), the cell number change came to 17.3%. In addition, the AC50 under setting [2] was 0.0326 µM [rising, full curve, poor fit].

Take `Cc1cc(C)c(C)c(S(=O)(=O)NCC(=O)O)c1C`: the cell number change is -17.4%. Also, the AC50 under setting [2] is 0.82 µM [falling, full curve].

As for `N#CCSc1ccsc1C(=O)Nc1ccc(F)cc1`, the cell number change was 64.9%. Moreover, the AC50 under setting [1] is 3.66 µM [rising, full curve]. Besides, the AC50 under setting [2] was 1.46 µM [rising, full curve].

`CC1CCN(C(=O)C2CCN(S(=O)(=O)c3cccc4cccnc34)CC2)CC1`: the cell number change is -34.3%. The AC50 under setting [1] was 20.6 µM [falling, single point].

For the molecule `COc1ccccc1-n1nnnc1SCC(=O)Nc1ccccc1`, the cell number change is 37.1%. Also, the AC50 under setting [1] was 29.1 µM [rising, single point]. Under setting [2], the half-maximal activity concentration (AC50) is 6.51 µM [rising, partial curve, poor fit].

As to `O=C(Nc1ccc(C(=O)N2CCCCC2)cc1)Nc1cccc(Cl)c1`, the AC50 under setting [2] was 16.4 µM [falling, single point].

For the molecule `CC(C)[C@H](NC(=O)OCc1ccccc1)C(=O)OCc1cc(=O)oc2cc(O)ccc12`, the cell number change was -26.7%. Also, the AC50 under setting [2] was 6.51 µM [falling, single point].

As to `COC(=O)c1cc(C)[nH]c2c(C)cc3nc4ccccc4c3c12`, the cell number change is -38.1%. In addition, the AC50 under setting [1] was 14.6 µM [falling, single point]. Moreover, the AC50 under setting [2] is 16.4 µM [falling, single point].

On to `O=C(CSc1nc(Cc2ccccc2)nc2ccccc12)Nc1ccc2c(c1)OCCO2`, for which the cell number change was -20.3%. For the same molecule, the concentration at half-maximal activity (AC50) under setting [2] was 1.46 µM [rising, partial curve].

As to `NC(=O)CC(NC(=O)Cc1ccc(Br)cc1)c1ccc(N2CCc3ccccc3C2)c([N+](=O)[O-])c1` (stereo unspecified), the cell number change was -42.2%. Further, the AC50 under setting [1] is 29.1 µM [falling, single point]. The AC50 under setting [2] was 18.4 µM [falling, partial curve].

As for `CCC(C)[C@H](NC(=O)NCCC1=CCCCC1)C(=O)OC` (stereo partly specified), the cell number change came to 8.43%.

`COCCn1c(SCC(=O)Nc2cccnc2Cl)nc2cc(Cl)ccc2c1=O`: the cell number change turned out to be 6.43%. Also, the AC50 under setting [2] is 18.4 µM [falling, partial curve].

As to `Cc1nn(-c2ccc(F)cc2)c2sc(C(=O)OC3CCOC3=O)cc12` (stereo unspecified), the cell number change was 33.5%. Also, under setting [1], the AC50 was 29.1 µM [rising, single point]. Moreover, the AC50 under setting [2] is 29.1 µM [rising, single point].
